PubChem BioAssay AID686937 – Drosophila RNAi Screening Center, 2013
Test: 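Knock-downs that reduce output of a secreted reporter enzyme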 (primary screen). System: Drosophila S2 cells expressing secreted horseradish peroxidase. Knock-down reagent: long dsRNA against Drosophila genes. Duration: about 5.5 days (5 days dsRNA, then 12 h reporter induction). Treatment: reporter expression induced after 5 days of dsRNA, read 12 h later; inducer not stated. Detection: 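After 5 days of dsRNA and 12 h of reporter induction, medium peroxidase read by chemiluminescence and scored as per-plate z-score; higher values mean more reporter released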. Direction: z-score: higher = more reporter secreted into medium.
In all, the deposit lists about 23,000 reagents; this is an unselected part of those with a known target gene and a result. 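Reduced-secretion tags in replicate 1 do not always agree with the z-scores; no criterion for assigning the tags was given.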 A plus sign joins genes that one reagent is predicted to hit. Not all columns of the deposit are shown. Not given: the amount of reagent.

| Gene | dsRNA | z-score, replicate 1 |
| --- | --- | --- |
| Dh31-R | DRSC06647 | -0.08 |
| Dh31-R | DRSC06669 | 0.35 |
| CHKov2 | DRSC14262 | 0.26 |
| sro | DRSC14469 | -1.15 |
| CG30378 | DRSC05071 | -0.14 |
| Rilpl | DRSC18494 | 0.25 |
| Iml1 | DRSC08249 | 0.33 |
| mod | DRSC16999 | 0.22 |
| Cyp4aa1 | DRSC07368 | 0.51 |
| lncRNA:CR32660 | DRSC22965 | -0.18 |
| stas | DRSC20104 | -0.11 |
| CG43090 | DRSC17439 | 0.6 |
| Letm1 | DRSC04476 | -0.45 |
| ogre | DRSC18809 | 0.29 |
| goe | DRSC19345 | 0.13 |
| CG32022 | DRSC09678 | 0.16 |
| Stam | DRSC03444 | 0.18 |
| Snap29 | DRSC04721 | 0.43 |
| Hsp26 | DRSC11189 | 0.4 |
| Tudor-SN | DRSC08581 | 0.02 |
| CG6380 | DRSC02950 | -0.18 |
| CG4835 | DRSC10452 | -4.46 |
| Rpn5 | DRSC12367 | -3.44 |
| CG7856 | DRSC04896 | 0.11 |
| IFT20 + CG10395 | DRSC22660 | 1.65 |
| bb8 | DRSC15578 | 0.23 |
| ND-20L | DRSC15414 | 0.17 |
| RunxB | DRSC20395 | 0.46 |
| RunxB | DRSC20525 | 0.37 |
| RunxB | DRSC20526 | -9.01 |
| Gyf | DRSC17202 | -0.24 |
| mRpL15 | DRSC11771 | 0.01 |
| Tango9 | DRSC14173 | -2.06 |
| CG13193 | DRSC06318 | 0.32 |
| Rpn10 | DRSC11876 | -1.56 |
| Rpn6 | DRSC07541 | -7.21 |
| MESR3 | DRSC02463 | 0.27 |
| Gos28 | DRSC16292 | 0.17 |
| Gos28 | DRSC22859 | 1.33 |
| CG10962 | DRSC18421 | 0.36 |
| Osbp | DRSC16779 | 0.56 |
| CG31988 | DRSC22491 | -0.09 |
| row | DRSC07076 | 0.43 |
| row | DRSC07077 | -0.89 |
| CG14294 | DRSC14774 | 0.49 |
| Patj | DRSC08712 | -6.03 |
| twf | DRSC15466 | 0.28 |
| CG10959 | DRSC17769 | 0.49 |
| ND-B18 | DRSC19947 | -0.09 |
| CG15919 | DRSC06594 | 0.7 |
| Vps33B | DRSC15722 | 0.66 |
| IA-2 | DRSC00304 | 0.67 |
| IA-2 | DRSC00652 | 0 |
| CR43105 | DRSC05547 | -1.69 |
| CG15358 | DRSC00388 | 0.13 |
| Act5C | DRSC17723 | -0.13 |
| CG33143 | DRSC04151 | 0.18 |
| CG33143 | DRSC04454 | -0.26 |
| CG3368 | DRSC15485 | 0.57 |
| sona | DRSC04089 | 0.15 |
| sona | DRSC04574 | -0.42 |
| sona | DRSC04575 | 0.11 |
| bip1 | DRSC11327 | 0.48 |
| Cyp49a1 | DRSC06737 | 0.1 |
| Cyp49a1 | DRSC07367 | 0.24 |
| fat-spondin | DRSC07617 | 0.21 |
| gpp | DRSC12515 | 0.31 |
| gpp | DRSC12516 | 0.64 |
| CG15534 | DRSC15070 | 0.44 |
| CG30414 | DRSC04372 | 0.15 |
| Alp11 | DRSC20080 | 0.28 |
| Cln3 | DRSC10520 | 0.47 |
| RluA-2 | DRSC02939 | 0.43 |
| Trf5 | DRSC00412 | 0.19 |
| Cyp301a1 | DRSC07365 | 0.5 |
| Or23a | DRSC00767 | -0.03 |
| CG31689 | DRSC00734 | 0.05 |
| CG13744 | DRSC06415 | 0.34 |
| CG7379 | DRSC16237 | 0.27 |
| rad50 | DRSC04523 | 0.23 |
| NimB4 | DRSC01884 | 0.39 |
| snoRNA:U31:54Ec + snoRNA:snR38:54Eb + snoRNA:U27:54Eb + 8 more | DRSC06458 | 0.01 |
| CG13784 | DRSC00974 | 0.08 |
| CG13784 | DRSC02287 | 0.29 |
| Plp | DRSC10006 | 0.67 |
| Plp | DRSC10333 | -0.03 |
| Plp | DRSC10700 | 0.26 |
| Oatp33Ea | DRSC02859 | 0.21 |
| CG1785 | DRSC18139 | 0.4 |
| Atg2 | DRSC08273 | -0.05 |
| Arp10 | DRSC19448 | 0.03 |
| Myt1 | DRSC11228 | 0.14 |
| Sfp38D | DRSC01810 | -0.27 |
| CG4049 | DRSC04443 | 0.21 |
| CG17991 | DRSC15294 | 0.1 |
| key | DRSC04285 | -0.19 |
| Tg | DRSC03047 | 0.32 |
| wts | DRSC17096 | -3.56 |
| Sps2 | DRSC03441 | 0.02 |
| Obp19b | DRSC20536 | -0.35 |
| Tspo + rempA | DRSC00533 | 0.39 |
| lncRNA:CR42735 (retired record) | DRSC00921 | -0.21 |
| ZnT33D | DRSC02591 | 0.12 |
| DAAM | DRSC18479 | -1.54 |
